Measured values as given in publication PMC3464197.
Results are given in words; binding and its absence hold for the method and conditions named. Binding seen in cells or lysates may run through a third protein. Binding can be weak; no strength is given. Where a sequence is shown, tags or fusion partners need not be part of it.

Target: T1, Cullin-3 (CUL3), V5-tagged (Drosophila) (UniProt Q9V475)
T1 sequence: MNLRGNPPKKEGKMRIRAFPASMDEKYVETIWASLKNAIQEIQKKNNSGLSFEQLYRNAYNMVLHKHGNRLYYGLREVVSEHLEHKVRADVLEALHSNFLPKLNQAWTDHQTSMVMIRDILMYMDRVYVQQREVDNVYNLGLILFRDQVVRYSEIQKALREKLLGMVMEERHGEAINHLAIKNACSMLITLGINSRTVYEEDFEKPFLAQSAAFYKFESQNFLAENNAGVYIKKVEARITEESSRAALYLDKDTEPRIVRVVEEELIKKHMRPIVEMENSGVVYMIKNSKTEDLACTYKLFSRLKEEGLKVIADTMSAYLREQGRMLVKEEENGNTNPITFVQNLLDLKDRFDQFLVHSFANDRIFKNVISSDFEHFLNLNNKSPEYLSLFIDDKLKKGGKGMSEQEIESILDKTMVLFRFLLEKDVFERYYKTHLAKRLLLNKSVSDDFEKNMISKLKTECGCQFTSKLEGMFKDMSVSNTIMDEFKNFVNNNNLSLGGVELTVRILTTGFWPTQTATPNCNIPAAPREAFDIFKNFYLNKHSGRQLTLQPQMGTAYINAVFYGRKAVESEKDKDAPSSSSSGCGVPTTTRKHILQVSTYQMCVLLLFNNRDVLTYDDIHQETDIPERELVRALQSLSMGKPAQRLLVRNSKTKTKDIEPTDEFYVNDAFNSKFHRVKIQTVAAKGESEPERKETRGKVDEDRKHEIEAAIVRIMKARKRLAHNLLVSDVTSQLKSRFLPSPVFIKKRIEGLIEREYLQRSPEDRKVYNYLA
Experiment: co-IP; α-V5 agarose immunoprecipitation from supernatant of transfected S2 cells (Cul3-V5, inc-HA and/or inc-V5) lysed 24 h after transfection in T150 buffer (25 mM Tris-Cl pH 7.5, 150 mM NaCl, 10% glycerol, 1 mM EDTA, 1 mM DTT, 0.5% NP-40, 1 mM PMSF); 1.5 h at 4°C; blotted with α-HA to detect INC-HA

- binding: binds
Substance: Insomniac (INC), epitope-tagged (Drosophila)
